PubChem BioAssay AID504786 – Drosophila RNAi Screening Center, 2011
The deposit covers about 21,000 reagents; shown is an unselected part of those with a known target gene and a result. 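Primary screen; positive scores mean lost reporter signal, so the sign may be inverted from the usual convention.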

Purpose: 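Positive regulators of HIF-driven reporter output in Drosophila cells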 (primary screen)
Cell system: Drosophila S2 cells with a stable HIF luciferase reporter
Knock-down reagent: long dsRNA against Drosophila genes, about 0.2 µg dsRNA per well of a 384-well plate
Timing: three days of knock-down, then 20 h of DFO before reading
Challenge: desferrioxamine (DFO) at 100 µM, an iron chelator that mimics hypoxia, for 20 h
Measured: 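HIF reporter luminescence in cells given 100 µM DFO for 20 h, using the mouse ldh-a hypoxia-response element, scored as per-plate z-scores; higher means greater loss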
Scale: z-score: higher = stronger loss of HIF reporter signal

gene knocked down	amplicon	z-score, replicate 1	z-score, replicate 2
Gr22f	DRSC00076	-0.5	-0.5
Cyp313a3	DRSC16626	-0.4	-0.2
Twdlalpha	DRSC19914	-0.4	0.2
Idi	DRSC15918	-0.2	-0.2
Osi2	DRSC12174	-0.5	-0.6
CG12299	DRSC02158	-0.6	-0.7
CG6931	DRSC10750	-0.2	-0.6
pigs	DRSC17472	-0.4	-0.2
pigs	DRSC18334	-0.3	-0.5
pigs	DRSC18335	-0.1	0
CG13728	DRSC10056	-0.2	-0.2

Next part; the last 4 above are carried over.
gene knocked down	amplicon	z-score, replicate 1	z-score, replicate 2
pigs	DRSC17472	-0.4	-0.2
pigs	DRSC18334	-0.3	-0.5
pigs	DRSC18335	-0.1	0
CG13728	DRSC10056	-0.2	-0.2
ND-B17	DRSC01981	-0.3	0.2
Pfk	DRSC07506	-0.3	-0.1
CG34247	DRSC09933	-0.2	-0.6
CG42490 (retired record)	DRSC01649	-0.1	0.6
CG18011	DRSC06697	-0.5	-0.6
CG18011	DRSC06706	-0.2	-0.3
Chd1	DRSC00745	-0.3	-0.9
tty	DRSC20588	-0.2	-0.2
Ipp	DRSC16718	-0.1	0.1
dati	DRSC17128	-0.2	-0.3
dati	DRSC17153	-0.3	-0.9
CG17726	DRSC15255	-1.2	-0.4
NimB5	DRSC01885	-0.5	-0.6
PGAP1	DRSC18286	-0.3	-0.5
Pss	DRSC11757	-0.2	0.1
CG33296	DRSC00998	0.1	-0.1
CG31675	DRSC01825	-0.7	-0.5
CG32537	DRSC20073	-0.4	-0.4
Cyp6t3	DRSC07388	-0.3	0.2
CG5359	DRSC15780	-0.4	-0.3
CG31636	DRSC02276	-0.2	-0.9
Mgat2	DRSC16347	-0.4	-0.7
CG32855	DRSC13131	0.1	0
